Experimental data from EP0584290B1 (WARNER-LAMBERT COMPANY, priority 1991, dated 1992).

Assay: general procedure: Boc solid-phase peptide synthesis; Boc-Trp(For)-PAM resin; dicyclohexylcarbodiimide; activated esters or anhydrides of N-alpha-Boc amino ac
Conditions: whole synthesis, scale 0.43 meq

For PEPTIDE1{[ac].[dF].L.D.I.I.W}$$$$V2.0, the isolated mass was 14.8 mg.

Strings that start with PEPTIDE1 are HELM notation: dots part the residues, brackets hold end groups and non-standard residues.
